Reference: PubChem BioAssay AID602313 (National Center for Advancing Translational Sciences (NCATS), 2012)
Among all 390,000 compounds or so, about 760 (0.19%) were called active. The shares of active, inactive and inconclusive entries below differ from those in the screen. Calls follow the shape of the dose curve; as a rule, active = well fitted inhibition curve with a large enough effect; inconclusive = small, poorly fitted or top-dose-only effect; inactive = flat fitted curve, though single readings scatter. Where the call is inconclusive, the potency comes from a doubtful curve fit.

Test: qHTS for Inhibitors of Vif-A3F Interactions: qHTS; also: nearly all actives have a fitted effect of over 65% in size; as to activity, negative = active: % of control where 0% means no effect
Details: HeLa A3F-eYFP + Vif (tagged APOBEC3F with the HIV-1 protein that degrades it), YFP fluorescence increase; series mostly up to 46.1 µM; activity, negative = active: at the top concentration
How it was run: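 Fluorescence increase (Ex 488/Em 500-530) after overnight compound treatment at 37 deg C flags inhibition of Vif-driven A3F-eYFP loss in stable HeLa A3F-eYFP/Vif cells seeded overnight beforehand.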
Potency is read from the fitted curve at half-maximal effect.

Question: Which “activity, negative = active” value does the source give for `COc1ccc(N2CSC3=C(C#N)C(c4ccc(OC)c(OC)c4)CC(=O)N3C2)c(OC)c1` (stereo not drawn) here?
Answer: The value was inactive: -8.17%.

Question: For `C/C(=N\NC(=S)Nc1ccc(F)cc1)c1ccc2c(c1)OCCO2`, which Potency is on record?
Answer: Its Potency is inconclusive: 3.98 µM [inhibitor, single point].

Question: Which Potency does the source give for `CNC(=S)N/N=C(\C)c1ccccc1` here?
Answer: The Potency was inconclusive: 35.5 µM [inhibitor, single point].

Question: For `O=[N+]([O-])c1ccccc1/C=N/Nc1nc(N2CCCC2)nc(N2CCCC2)n1`, which Potency is on record?
Answer: Its Potency is inconclusive: 12.6 µM [inhibitor, partial curve, poor fit].

Question: Which “activity, negative = active” value does the source give for `COc1ccc(C2c3ccc4ccccc4c3Oc3ncn(CCO)c(=N)c32)cc1OC` (stereo not drawn) here?
Answer: Its value is inactive: -4.49%.

Question: For `COc1ccc(-c2c(C)nc(N)nc2-c2ccc(OC)cc2O)cc1`, which Potency is on record?
Answer: Its Potency is inconclusive: 6.31 µM [inhibitor, single point].

Question: With `Cc1cccc(C)c1Nc1nnc(SC/C(O)=C(\C#N)c2nc3ccccc3[nH]2)s1` as the compound, how does the “activity, negative = active” value read?
Answer: Its value is inactive: -1.9%.

Question: With `CCOC(=O)c1[nH]c(C)c(CN(C(C)=O)c2ccc(OCC)cc2)c1C` as the compound, how does the Potency read?
Answer: Its Potency is inconclusive: 35.5 µM [inhibitor, single point].

Question: For `O=C(C1CCCC1)N1CCN(S(=O)(=O)c2ccc(F)cc2)CC1`, which Potency is on record?
Answer: Its Potency is inconclusive: 31.6 µM [inhibitor, single point].

Question: For `O=C(O)c1ccc(NN=CC2=C(N3CCOCC3)/C(=C/c3ccccc3)CC2)cc1`, which Potency is on record?
Answer: Its Potency is inconclusive: 35.5 µM [inhibitor, single point].

Question: With `O=C(c1ccc(Cl)nc1)N1CCN(S(=O)(=O)c2ccccc2)CC1` as the compound, how does the Potency read?
Answer: The Potency was inconclusive: 25.1 µM [inhibitor, single point].

Question: With `Cc1cc(=O)c(C(=O)O)cn1-c1ccc(C(C)C)cc1` as the compound, how does the Potency read?
Answer: Its Potency is inconclusive: 10 µM [inhibitor, single point].

Question: With `CC(=O)N1CCN(CC(=O)Nc2ccc([N+](=O)[O-])cc2Br)CC1` as the compound, how does the Potency read?
Answer: The Potency was inconclusive: 35.5 µM [inhibitor, single point].

Question: For `CCOC(=O)Cn1nnc(-c2ccc(S(C)(=O)=O)cc2)n1`, which “activity, negative = active” value is on record?
Answer: The value was inactive: 2.48%.

Question: With `CN1CCS/C1=C/C=C1/SC(=S)N(Cc2ccccc2)C1=O` as the compound, how does the Potency read?
Answer: Its Potency is inconclusive: 17.8 µM [inhibitor, partial curve, poor fit].

Question: With `C[N+]1(CC(O)COCC2COc3ccccc3O2)CCOCC1` (stereo not drawn) as the compound, how does the “activity, negative = active” value read?
Answer: The value was inactive: 6.92%.

Question: Which Potency does the source give for `N#CCCN(C(=O)COC(=O)C1=COCCO1)c1ccc(F)cc1` here?
Answer: Its Potency is inconclusive: 3.16 µM [inhibitor, single point].

Question: With `Cc1ccc(N(C)C(=O)CCNC(=O)Cn2cnc3ccccc3c2=O)cc1C` as the compound, how does the Potency read?
Answer: The Potency was inconclusive: 31.6 µM [inhibitor, single point].

Question: With `Cc1ccc(C(=O)NC(=S)Nc2ccccc2N2CCOCC2)cc1C` as the compound, how does the Potency read?
Answer: The Potency was inconclusive: 25.1 µM [inhibitor, partial curve, poor fit].

Question: For `O=C(Nc1ccncc1)c1ccc([N+](=O)[O-])cc1Cl`, which Potency is on record?
Answer: The Potency was inconclusive: 11.2 µM [inhibitor, partial curve, poor fit].

Question: For `Cc1ccc(NC(=O)N2CC=C(c3c[nH]c4ccccc34)CC2)cc1Cl`, which Potency is on record?
Answer: The Potency was inconclusive: 15.8 µM [inhibitor, partial curve, poor fit].

Question: Which Potency does the source give for `CCc1ccc(NS(=O)(=O)c2cc3c4c(c2)CCN4C(=O)CC3)cc1` here?
Answer: Its Potency is inconclusive: 8.91 µM [inhibitor, partial curve, poor fit].

Question: With `O=C(Cc1ccccc1)N/N=C/c1ccc(-c2ccc([N+](=O)[O-])cc2)o1` as the compound, how does the Potency read?
Answer: The Potency was inconclusive: 15.8 µM [inhibitor, partial curve, poor fit].

Question: With `CC(=O)n1cc([C@@H]2C=C(C(=O)Nc3ccccc3)O[C@H](OCc3ccc(CO)cc3)C2)c2ccccc21` as the compound, how does the Potency read?
Answer: Its Potency is inconclusive: 17.8 µM [inhibitor, single point].

Question: Which Potency does the source give for `COc1ccc(Nc2nc3ccccc3n3c(N)nnc23)cc1` here?
Answer: Its Potency is inconclusive: 22.4 µM [inhibitor, partial curve, poor fit].

Question: Which Potency does the source give for `O=C(N=c1ccn(-c2nc3ccccc3nc2NS(=O)(=O)c2ccccc2)cc1)c1cccs1` here?
Answer: Its Potency is active: 25.1 µM.

Question: For `CCn1c(-c2ccccc2)c(C(=O)CC#N)c2ccccc21`, which Potency is on record?
Answer: Its Potency is inconclusive: 35.5 µM [inhibitor, single point].

Question: With `COC(=O)c1ccc(C2N=C(c3cccs3)CC(c3ccccc3O)N2)cc1` (stereo not drawn) as the compound, how does the “activity, negative = active” value read?
Answer: Its value is inactive: 5.76%.

Question: Which “activity, negative = active” value does the source give for `Cc1ccc(NC(=O)c2cccs2)cc1NC(=O)c1cccc(F)c1` here?
Answer: Its value is inactive: 5.29%.

Question: For `O=C1ON=C(c2ccc(Cl)cc2)/C1=C/c1ccc(O)cc1`, which Potency is on record?
Answer: Its Potency is inconclusive: 3.16 µM [inhibitor, single point].

Question: For `Cc1cc2c([nH]c3ccccc32)c(C)n1`, which Potency is on record?
Answer: The Potency was inconclusive: 7.08 µM [inhibitor, partial curve, poor fit].

Question: For `O=C(c1ccco1)N1CCN(C/C=C/c2ccccc2)CC1`, which “activity, negative = active” value is on record?
Answer: The value was inactive: 10.5%.

Question: With `CCc1cccc(NC(=O)C2CCCN(c3ncnc4c3nc3n4CCCCC3)C2)c1` (stereo not drawn) as the compound, how does the “activity, negative = active” value read?
Answer: Its value is inactive: -9.15%.

Question: Which “activity, negative = active” value does the source give for `CSc1ccc(C2c3c(-c4ccccc4O)n[nH]c3C(=O)N2Cc2ccncc2)cc1` (stereo not drawn) here?
Answer: The value was inactive: -4.42%.

Question: With `Cc1nc(-c2ccccc2)nc2sc(C(=O)c3ccc(F)cc3)c(N)c12` as the compound, how does the Potency read?
Answer: Its Potency is inconclusive: 10 µM [inhibitor, partial curve, poor fit].

Question: With `N#CC1CC(c2ccc([N+](=O)[O-])cc2)=NN1c1ccc([N+](=O)[O-])cc1` (stereo not drawn) as the compound, how does the Potency read?
Answer: The Potency was inconclusive: 35.5 µM [inhibitor, partial curve, poor fit].

Question: Which Potency does the source give for `CC(C)(C)c1cc(Cl)c(O)c(NC(=S)NC(=O)c2cccnc2)c1` here?
Answer: Its Potency is inconclusive: 35.5 µM [inhibitor, single point].

Question: With `COc1cccc(Cn2nc3c4cc(F)ccc4n(Cc4ccc(F)cc4)cc-3c2=O)c1` as the compound, how does the Potency read?
Answer: The Potency was inconclusive: 35.5 µM [inhibitor, single point].

Question: For `CC(C)n1cc(/C=N/NC(=O)COc2cccc3cccnc23)c2ccccc21`, which “activity, negative = active” value is on record?
Answer: The value was inactive: 3.84%.

Question: With `Cc1ccc(-c2nc(S(=O)(=O)c3ccc(C)cc3)c(SCC(=O)NCC3CCCO3)o2)cc1` (stereo not drawn) as the compound, how does the Potency read?
Answer: Its Potency is inconclusive: 15.8 µM [inhibitor, single point].

Question: Which Potency does the source give for `CCOC(=O)C1(Cc2ccc(OC)cc2)CCN(C(=O)C2CCCO2)CC1` (stereo not drawn) here?
Answer: The Potency was inconclusive: 35.5 µM [inhibitor, single point].

Question: Which Potency does the source give for `O=C(Oc1ccc(F)cc1C(=O)/C=C/c1cccs1)c1cccc([N+](=O)[O-])c1` here?
Answer: Its Potency is inconclusive: 25.1 µM [inhibitor, single point].

Question: With `Cc1ccc(NC(=O)NCCN2CCCCC2)cc1C` as the compound, how does the Potency read?
Answer: The Potency was inconclusive: 1.78 µM [inhibitor, partial curve, poor fit].

Question: With `COc1ccc(/C=C2/SC(c3ccc(C)cc3)=NC2=O)cc1OC` as the compound, how does the “activity, negative = active” value read?
Answer: The value was inactive: -16.6%.

Question: For `N/C(=N\OC(=O)c1ccc2ccccc2c1)c1ccncc1`, which Potency is on record?
Answer: The Potency was inconclusive: 12.6 µM [inhibitor, partial curve].

Question: For `CCOC(=O)C(C)Sc1nnc2cc(C)c3ccccc3n12` (stereo not drawn), which “activity, negative = active” value is on record?
Answer: Its value is inactive: -1.18%.

Question: With `CC(C)c1ccccc1NC(=S)NCCCn1ccnc1` as the compound, how does the “activity, negative = active” value read?
Answer: Its value is inactive: 4.56%.

Question: Which Potency does the source give for `ClCc1nc2ccccc2c2ccccc12` here?
Answer: Its Potency is inconclusive: 20 µM [inhibitor, single point].

Question: With `CCc1ccccc1NC(=O)c1sc2nc(C)cc(C)c2c1N` as the compound, how does the “activity, negative = active” value read?
Answer: The value was inactive: -6.47%.

Question: With `Cc1cc(C)nc(SCC(=O)c2ccc(O)c(O)c2)n1` as the compound, how does the “activity, negative = active” value read?
Answer: The value was inactive: -2.17%.

Question: With `O=C(/C=C/c1ccco1)NC(=S)Nc1ccccc1N1CCCC1` as the compound, how does the Potency read?
Answer: Its Potency is inconclusive: 7.94 µM [inhibitor, partial curve, poor fit].

Question: Which “activity, negative = active” value does the source give for `O=C(Nc1ccc(S(=O)(=O)Nc2nccs2)cc1)c1ccc(F)c(S(=O)(=O)N2CCOCC2)c1` here?
Answer: Its value is inactive: -0.624%.

Question: For `CC(=O)Nc1ccc(-c2csc(NC(=O)CN3C(=O)NC4(CCCC4)C3=O)n2)cc1`, which Potency is on record?
Answer: The Potency was inconclusive: 25.1 µM [inhibitor, single point].

Question: Which Potency does the source give for `O=C(c1ccco1)N1CCN(Cc2nnc(-c3cccc(Br)c3)o2)CC1` here?
Answer: The Potency was inconclusive: 4.47 µM [inhibitor, single point].

Question: For `COc1cccc(NC(=O)c2oc3ccccc3c2NC(=O)c2ccccc2C)c1`, which “activity, negative = active” value is on record?
Answer: Its value is inactive: -7.32%.

Question: For `COc1ccccc1Nc1nnc(SCC(=O)Nc2nc(-c3ccc(F)cc3)cs2)s1`, which Potency is on record?
Answer: The Potency was inconclusive: 14.1 µM [inhibitor, single point].

Question: With `O=C(Oc1ccc2c(c1)O/C(=C\c1ccncc1)C2=O)c1ccccc1` as the compound, how does the Potency read?
Answer: Its Potency is inconclusive: 17.8 µM [inhibitor, partial curve, poor fit].

Question: Which “activity, negative = active” value does the source give for `COc1ccc(OC)c(Nc2nc3ccccc3nc2-n2nc(C)cc2C)c1` here?
Answer: The value was inactive: -6.78%.

Question: For `Cc1cc(C)n(C2CCCCC2OC(=O)CCc2ccccc2)n1` (stereo not drawn), which Potency is on record?
Answer: Its Potency is inconclusive: 35.5 µM [inhibitor, single point].

Question: For `COc1cnc(-c2ccccc2)nc1OC`, which Potency is on record?
Answer: The Potency was inconclusive: 3.16 µM [inhibitor, single point].

Question: Which Potency does the source give for `CCCOc1ccc([C@@H]2C3CN(C(=O)OCC)CC=C3C(C#N)=C(N)C2(C#N)C#N)cc1OC` (stereo partly drawn) here?
Answer: The Potency was inconclusive: 22.4 µM [inhibitor, single point].

Question: For `CCOc1ccc(NC(=S)NC(=O)C2CCCC2)cc1`, which Potency is on record?
Answer: The Potency was inconclusive: 35.5 µM [inhibitor, single point].

Question: Which Potency does the source give for `Cc1ccc(-c2csc3nc(-c4ccncc4)[nH]c(=O)c23)cc1` here?
Answer: Its Potency is inconclusive: 11.2 µM [inhibitor, partial curve, poor fit].

Question: With `CCN(CC)CCCNC(=O)c1ccc2c(c1)sc1nc(-c3ccc(C)cc3)cn12` as the compound, how does the Potency read?
Answer: The Potency was inconclusive: 3.16 µM [inhibitor, single point].

Question: Which Potency does the source give for `CCn1c(SCC(=O)Nc2cccc(O)c2)nc2c1c(=O)n(C)c(=O)n2C` here?
Answer: The Potency was inconclusive: 3.55 µM [inhibitor, partial curve].

Question: For `CC(=O)Nc1cccc(NC(=S)Nc2ccc(F)c(Cl)c2)c1`, which “activity, negative = active” value is on record?
Answer: Its value is inactive: -0.222%.

Question: With `Cc1ccccc1N=Cc1cccc(O)c1O` as the compound, how does the “activity, negative = active” value read?
Answer: Its value is inactive: 2.57%.

Question: Which Potency does the source give for `COc1ccc(/C=c2\s/c(=C/C(=O)c3ccc(C)cc3)[nH]c2=O)cc1OC` here?
Answer: The Potency was inconclusive: 25.1 µM [inhibitor, single point].
